# According to PubChem BioAssay AID1508600 (Functional Genomics Laboratory (NCATS/FGL), 2020):
# In all, about 53,000 sequences went through this assay and about 3,700 (7%) were called active.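 Rule for the calls: active = gene knockdowns whose robust z-score for IL-1 alpha signal is at least 2 or at most -2, so actives lie on both sides; inactive = the rest.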 Some of the results follow.
# Assay: Components of the Cytosolic LPS Sensing Pathway: Gene Identification via Genome-wide siRNA Screen;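 note: robust z of the log signal after scaling to non-targeting control siRNA wells of the plate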
# Conditions: RAW264.7 macrophages, IL-1a HTRF, actives lie on both sides, screened at 100 nM (by protocol), cells primed 5 h with Pam3CSK4 first
# How it was run: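 Cells (RAW264.7, 1×10^4 per well) were transfected with siRNA at 100 nM and cultured 48h at 37 degrees C. Pam3CSK4 was added for 5 hours; LipidA transfection followed for 24 hour. IL-1a was then measured by HTRF.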
row,Sequence,z-score
1,GGAUGAAAAAGUUAAGAAGTT against Lmod1,inactive: 0.886
2,GGAAUCGCUACCCUGACAUTT against Pitx3,inactive: -1.69
3,GGCUGUUGUGUUAUUUGUUTT against Tusc2,inactive: 0.0201
4,GGCUGAGAAUCUGGUUGAGTT against Casp12,inactive: -1.57
5,GGUUAUCAAACAGGUGUUGTT against Aldh3b1,active: 2.22
6,GGUUCUGUUGUGUGACUAUTT against Mme,inactive: -0.673
7,CUACACGUAAGGAUGUAUCTT against Fcmr,inactive: -0.774
8,GCUCCCAGUUCUCUUUCUUTT against Defb44-ps,inactive: 1.41
9,AGUAUACGAUGACUAUUUCTT against Zfp51,inactive: 1.27
10,CCCAAUCGGUUAAUUGUUGTT against Vcp,active: -2.37
11,GCAAGAAAGCAUGGUAUAATT against Slc25a40,inactive: -1.17
12,GGAUUUGUUCGACCAGAUUTT against Epb41l4b,inactive: 0.831
13,GGUGGAAGACGUACUUCCUTT against Nfatc1,inactive: 0.191
14,CCUUGGCACAUGGAUCUAUTT against Tomm22,inactive: 1.36
15,GCCUAGGUAGUGGAGAUGATT against Nkd1,inactive: -0.666
16,GCUGGAUAGCACAUGUCUATT against Klk1b16,inactive: -1.94
17,GGACCUAGAGCGGAGUCUATT against Golga1,inactive: -1.7
18,CCUAAGGUACCAUUUUAAATT against Clp1,inactive: 0.225
19,GGGUAAAGUUGUCAGUGGUTT against Cd4,inactive: 0.0342
20,GCAGCUUAUCACAAUGCUGTT against Asb3,inactive: 0.396
21,GGAGAAUCCUGAAACAGGGTT against Kif3c,inactive: -0.221
22,GGACUGGAUGCCACUGGUATT against Cmpk2,inactive: 0.259
23,CCAAGGCCGUGUCAUUCAUTT against Adssl1,inactive: 0.893

row,Sequence,z-score
1,CAGCAAAAACGACCCACCATT against Eef1a1,inactive: -1.13
2,GGAGGAAAAAGAGAAAAAUTT against Slc16a2,inactive: -0.734
3,GCUCCACCGAGAAAUUACUTT against Magt1,inactive: 1.63
4,GCCAUAUCCUUCAAGAGACTT against Cstb,inactive: 0.0313
5,GGAGUUUGAUGAAUCGUCCTT against Tgds,inactive: 0.41
6,GGACCUAUGCAGCACUAAATT against Ppp1r11,inactive: 1.73
7,CGGACUCCUGACAUUAUAATT against Cd33,inactive: 0.429
8,CCUAUCUCCCUGUUCGAUATT against Rab36,inactive: -1.01
9,GCGAGAGUUUUUCUUCAACTT against Hoxc11,inactive: 0.385
10,GCAAAUCAUGACUAUUGUATT against Atat1,inactive: 0.00079
11,GGUUUUCAGAUCUAGGAUUTT against Casp6,inactive: -0.575
12,GGUGUCCUAUAACCAAGCATT against Atn1,inactive: -0.347
13,GGUGAACCAAACAACAAACTT against Sele,inactive: -0.159
14,GGUCGUGUAUGUCACUGCATT against Slc6a11,inactive: -0.395
15,CGAAUACUACGCCAAGAUUTT against Abca2,inactive: -0.867
16,GCUCCAAGUGUUAUUAGUCTT against Rgl2,inactive: 0.291
17,CCUUUAGAAGUAAACCUCGTT against Usp16,inactive: 1.35
18,GCACUAUUUUGGAUUAGUCTT against Usp12,inactive: -0.431
19,GCCUUAUUAGAGAAAAGAGTT against Krt1,inactive: -0.141
20,GGAGGCAGCAAAAAGGUUGTT against Olfr1110,inactive: -0.419
21,GGGUGAUCGCACGAUUGAGTT against Casq2,inactive: 0.364
22,GAAGUCUGUGACCAGUUCCTT against Fgf2os,inactive: 0.735
23,GGCAUAUCGAGUGCUCAGUTT against Dnajc4,inactive: -0.905

row,Sequence,z-score
1,GGUCAUUCCGGGAUUUUUUTT against Ibtk,inactive: -0.777
2,GGAAAUUUCAGAGCUCAAGTT against Trpc2,active: -2.81
3,GGAGUAGCAAAGAACUGCUTT against Arpc4,inactive: -0.762
4,CGGCAGUCCUUGUUAGGUATT against Olfr374,inactive: 1.33
5,GCUCUCACACAUGUUUGUUTT against Eddm3b,inactive: 0.222
6,GGAUGAAGUAGACUUAGAUTT against Depdc1b,inactive: 1.16
7,CCAACUGUUUGAGCUCUAUTT against Fam126b,inactive: 0.29
8,GGACAGUGAAUCUAUUGCUTT against Herc1,inactive: -1.41
9,GGGCUGAAGUGAAAACAGCTT against Mmp8,inactive: -0.523
10,CCUGAAAGUCGUUUAUCGCTT against Il7r,active: 2.74
11,GGCUUUGUAUAUUCUGUUGTT against Fkbp6,inactive: -0.635
12,GGUUCACGGGUUCUAAGAUTT against Eif1b,active: 2.35
13,GGAAGGAAGAAAAAAUAGUTT against Acat1,inactive: 1.09
14,GUCAUCACAAGUCAAGAAGTT against Prol1,inactive: -1.25
15,GGAUUUCCGUUGUCACUAATT against Krt34,inactive: 1.92
16,GGAUUUGACUGAGAAAGACTT against Psg27,inactive: -0.906
17,GGCUACCAAUGAGACCAAUTT against Snap91,inactive: 0.591
18,CCAGAGUGUUCACAGAACATT against Batf2,inactive: -1.43
19,GCAUGCAGACUUACAGAAGTT against Mnd1,inactive: 0.827
20,GCACAAGUACUUCGAGCGCTT against Insm1,inactive: 0.683
21,GCUAAAGCCGUACUCUGAGTT against Mark1,inactive: -1.65
22,GGCUAUUACUUUUAAGAACTT against Capn1,inactive: 0.0643
23,GCGGGACUGACCUCUUAAUTT against Guk1,inactive: -0.244

# A portion from further up, as a working copy:
row,Sequence,z-score
14,GUCAUCACAAGUCAAGAAGTT against Prol1,inactive: -1.25
15,GGAUUUCCGUUGUCACUAATT against Krt34,inactive: 1.92
16,GGAUUUGACUGAGAAAGACTT against Psg27,inactive: -0.906
